Reference: PMC6322583
These are yes or no findings as the source states them, for the method shown. In cells and extracts the contact can be indirect. Some binding calls cover weakened binding; strength is not graded here. Sequences can lack the tags named with a protein.

What was measured:
[1] = target: T1, YC–TRM1 (TON1 RECRUITMENT MOTIF1 fused to the C-terminal half of YFP) (UniProt Q9S823); assay: split reporter; BiFC: YN and YC fusions transiently co-expressed in N. benthamiana leaves by Agrobacterium infiltration; YFP fluorescence by confocal imaging with identical laser settings
T1 sequence: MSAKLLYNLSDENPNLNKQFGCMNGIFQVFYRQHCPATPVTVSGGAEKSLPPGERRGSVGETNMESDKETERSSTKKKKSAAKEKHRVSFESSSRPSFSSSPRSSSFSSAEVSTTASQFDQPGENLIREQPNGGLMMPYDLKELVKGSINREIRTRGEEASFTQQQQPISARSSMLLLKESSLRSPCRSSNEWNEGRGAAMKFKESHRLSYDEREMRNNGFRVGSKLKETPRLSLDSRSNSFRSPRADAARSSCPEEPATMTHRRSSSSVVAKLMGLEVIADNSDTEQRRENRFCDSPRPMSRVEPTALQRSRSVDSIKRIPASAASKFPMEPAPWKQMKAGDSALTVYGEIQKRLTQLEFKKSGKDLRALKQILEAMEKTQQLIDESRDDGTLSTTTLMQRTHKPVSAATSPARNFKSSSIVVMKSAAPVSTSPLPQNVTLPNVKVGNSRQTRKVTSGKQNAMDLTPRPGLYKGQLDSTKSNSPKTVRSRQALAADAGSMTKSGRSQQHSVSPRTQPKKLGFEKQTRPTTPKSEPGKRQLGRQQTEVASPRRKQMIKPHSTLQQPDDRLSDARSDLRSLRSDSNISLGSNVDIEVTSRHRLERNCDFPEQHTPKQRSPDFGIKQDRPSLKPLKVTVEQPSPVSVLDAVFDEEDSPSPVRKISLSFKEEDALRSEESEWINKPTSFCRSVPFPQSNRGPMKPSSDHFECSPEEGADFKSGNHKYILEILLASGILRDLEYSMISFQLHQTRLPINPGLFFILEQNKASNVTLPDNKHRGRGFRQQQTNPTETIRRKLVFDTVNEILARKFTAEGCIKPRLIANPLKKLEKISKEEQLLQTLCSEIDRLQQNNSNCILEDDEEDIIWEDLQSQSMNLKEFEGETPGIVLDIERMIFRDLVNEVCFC

[2] = target: YC–CaM2 (CaM2 fused to the C-terminal half of YFP) (UniProt P0DH97); assay: as above

binding [1]: no binding
binding [2]: binds
B1: YN–IQD5 (IQD5 fused to the N-terminal half of YFP) (protein, UniProt F4J061 1-422)
chain: MGASGRWIKALVGFTKSDKSRSSKKDENVKVATKSRFGRKNSVDFDFEKFQDGFEDSNTRSMVDTGVSTSTSLQSYGGVAYDEQSRENRAATRIQTAYRGFLARRALRALKGLVRLQALVRGHAVRKQAAVTLRCMQALVRVQARVRARRVRLALELESETSQQTLQQQLADEARVREIEEGWCDSIGSVEQIQAKLLKRQEAAAKRERAMAYALTHQWQAGTRLLSAHSGFQPDKNNWGWNWLERWMAVRPWENRFLDSNLRDDAKLGENGMEQSENVPKTQIKSVSKMPNTSNLVSGVSSQMTGPCQSDGDSSSPGISSSIPVVSKAKSKPAKDDLAVEVNSRPGAGPRSHSNPKERSREPNRSSKERLSLPNSGKSLGSQSTKANRAGKLTPASQKVVEEKSAQNQRRRNSDPIKQRLA
